The values below come from publication PMC4332150.

The chains behind the UniProt entries cited, without tags or fusion partners.
UniProt Q9UKB1: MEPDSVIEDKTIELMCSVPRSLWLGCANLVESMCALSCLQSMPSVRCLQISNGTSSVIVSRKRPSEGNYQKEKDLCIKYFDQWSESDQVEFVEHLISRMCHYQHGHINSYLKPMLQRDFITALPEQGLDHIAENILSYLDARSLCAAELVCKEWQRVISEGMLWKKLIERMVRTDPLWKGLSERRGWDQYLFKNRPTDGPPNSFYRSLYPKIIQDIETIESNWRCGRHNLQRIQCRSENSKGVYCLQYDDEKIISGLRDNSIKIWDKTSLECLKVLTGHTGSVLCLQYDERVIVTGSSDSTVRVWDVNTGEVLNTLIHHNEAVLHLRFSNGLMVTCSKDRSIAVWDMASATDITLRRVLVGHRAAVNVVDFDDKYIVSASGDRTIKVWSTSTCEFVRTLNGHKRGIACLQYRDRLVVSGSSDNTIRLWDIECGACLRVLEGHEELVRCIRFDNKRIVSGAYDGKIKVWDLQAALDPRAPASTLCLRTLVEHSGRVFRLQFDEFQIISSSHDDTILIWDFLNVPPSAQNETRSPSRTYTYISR

Results are given in words; binding and its absence hold for the method and conditions named. In cells and extracts the contact can be indirect. These calls come from enrichment with a bait or labelling near it, and not all partners need be listed. For some assays here: No binding means not detected with the bait.

Assay [1] has as its target βTRCP2/FBXW11 as bait of the reciprocal TAP/MS (UniProt Q9UKB1). Nature of the assay: affinity purification with mass spectrometry; TAP (streptavidin beads, biotin elution, S-protein beads; NETN buffer) of C-terminally SFB-tagged bait from HEK293T; chromatin fraction (pellet after NETN lysis, digested with TurboNuclease); forward and reciprocal purifications; some baits also after drug treatment.

Assay [2] shares this target. Nature of the assay: affinity purification with mass spectrometry; TAP (streptavidin beads, biotin elution, S-protein beads; NETN buffer) of C-terminally SFB-tagged bait from HEK293T; soluble fraction (supernatant of the NETN lysate); forward and reciprocal purifications.

B1: FOXN2 (endogenous) (protein, UniProt P32314 1-431)
chain: MGPVIGMTPDKRAETPGAEKIAGLSQIYKMGSLPEAVDAARPKATLVDSESADDELTNLNWLHESTNLLTNFSLGSEGLPIVSPLYDIEGDDVPSFGPACYQNPEKKSATSKPPYSFSLLIYMAIEHSPNKCLPVKEIYSWILDHFPYFATAPTGWKNSVRHNLSLNKCFQKVERSHGKVNGKGSLWCVDPEYKPNLIQALKKQPFSSASSQNGSLSPHYLSSVIKQNQVRNLKESDIDAAAAMMLLNTSIEQGILECEKPLPLKTALQKKRSYGNAFHHPSAVRLQESDSLATSIDPKEDHNYSASSMAAQRCASRSSVSSLSSVDEVYEFIPKNSHVGSDGSEGFHSEEDTDVDYEDDPLGDSGYASQPCAKISEKGQSGKKMRKQTCQEIDEELKEAAGSLLHLAGIRTCLGSLISTAKTQNQKQRKK
Take B1: the binding result in assay [1] is listed as “no binding (only in the chromatin fraction)”; in assay [2], “binds”.
